The supplement of paper PMC8728848
The other results are listed elsewhere or left out.

Tests used:
Assay in all cases: glycan array binding signal (z-score within array); higher = stronger binding
Conditions in all cases: glycan notation: IUPAC condensed, linker removed
[1] = target: Fuc(a1-2)[Gal(a1-4)]Gal(b1-4)GlcNAc
How it was run: (§1)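 Glycan array binding is given as a within-array Z-score, which can be read as non-binding when negative. The arrays, 3228 of them, came from the Consortium for Functional Glycomics database and were retained only where the protein sequence was available. Z-scores were averaged across arrays of the same protein sequence at different concentrations or buffers and across linkers.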

[2] = target: Fuc(a1-2)[GalNAc(a1-3)]Gal
How it was run: as §1

[3] = target: Fuc(a1-2)[GalNAc(a1-3)]Gal(b1-3)GalNAc(a1-3)[Fuc(a1-2)]Gal(b1-4)GlcNAc
How it was run: as §1

[4] = target: Fuc(a1-2)[GalNAc(a1-3)]Gal(b1-3)GalNAc(b1-3)Gal(a1-4)Gal(b1-4)Glc
How it was run: as §1

[5] = target: Fuc(a1-2)[GalNAc(a1-3)]Gal(b1-3)GlcNAc
How it was run: as §1

[6] = target: Fuc(a1-2)[GalNAc(a1-3)]Gal(b1-3)GlcNAc(b1-2)Man(a1-3)[Fuc(a1-2)[GalNAc(a1-3)]Gal(b1-3)GlcNAc(b1-2)Man(a1-6)]Man(b1-4)GlcNAc(b1-4)GlcNAc
How it was run: as §1

[7] = target: Fuc(a1-2)[GalNAc(a1-3)]Gal(b1-3)GlcNAc(b1-2)Man(a1-3)[Fuc(a1-2)[GalNAc(a1-3)]Gal(b1-3)GlcNAc(b1-2)Man(a1-6)]Man(b1-4)GlcNAc(b1-4)[Fuc(a1-6)]GlcNAc
How it was run: as §1

[8] = target: Fuc(a1-2)[GalNAc(a1-3)]Gal(b1-3)GlcNAc(b1-3)GalNAc
How it was run: as §1

[9] = target: Fuc(a1-2)[GalNAc(a1-3)]Gal(b1-3)GlcNAc(b1-6)GalNAc
How it was run: as §1

[10] = target: Fuc(a1-2)[GalNAc(a1-3)]Gal(b1-4)Glc
How it was run: as §1

[11] = target: Fuc(a1-2)[GalNAc(a1-3)]Gal(b1-4)GlcNAc
How it was run: as §1

[12] = target: Fuc(a1-2)[GalNAc(a1-3)]Gal(b1-4)GlcNAc(b1-2)Man
How it was run: as §1

[13] = target: Fuc(a1-2)[GalNAc(a1-3)]Gal(b1-4)GlcNAc(b1-2)Man(a1-3)[Fuc(a1-2)[GalNAc(a1-3)]Gal(b1-4)GlcNAc(b1-2)Man(a1-6)]Man(b1-4)GlcNAc(b1-4)GlcNAc
How it was run: as §1

[14] = target: Fuc(a1-2)[GalNAc(a1-3)]Gal(b1-4)GlcNAc(b1-2)Man(a1-3)[Fuc(a1-2)[GalNAc(a1-3)]Gal(b1-4)GlcNAc(b1-2)Man(a1-6)]Man(b1-4)GlcNAc(b1-4)[Fuc(a1-6)]GlcNAc
How it was run: as §1

[15] = target: Fuc(a1-2)[GalNAc(a1-3)]Gal(b1-4)GlcNAc(b1-3)Gal(b1-4)GlcNAc
How it was run: as §1

[16] = target: Fuc(a1-2)[GalNAc(a1-3)]Gal(b1-4)GlcNAc(b1-3)Gal(b1-4)GlcNAc(b1-3)Gal(b1-4)GlcNAc
How it was run: as §1

[17] = target: Fuc(a1-2)[GalNAc(a1-3)]Gal(b1-4)GlcNAc(b1-3)GalNAc
How it was run: as §1

[18] = target: Fuc(a1-2)[GalNAc(a1-3)]Gal(b1-4)GlcNAc(b1-3)[Fuc(a1-2)[GalNAc(a1-3)]Gal(b1-4)GlcNAc(b1-6)]GalNAc
How it was run: as §1

[19] = target: Fuc(a1-2)[GalNAc(a1-3)]Gal(b1-4)GlcNAc(b1-6)GalNAc
How it was run: as §1

[20] = target: Fuc(a1-2)[GalNAc(a1-3)]Gal(b1-4)[Fuc(a1-3)]GlcNAc
How it was run: as §1

[21] = target: Fuc(a1-2)[GalNAc(a1-3)]Gal(b1-4)[Fuc(a1-3)]GlcNAc(b1-3)GalNAc
How it was run: as §1

[22] = target: Fuc(a1-2)[GalNAc(a1-4)]Gal(b1-4)GlcNAc
How it was run: as §1

[23] = target: Fuc(a1-2)[GalNAc(b1-3)]Gal
How it was run: as §1

Fuc(a1-3)GlcNAc = target: Fuc(a1-3)GlcNAc
How it was run: as §1

[24] = target: Fuc(a1-3)[Gal(b1-4)]Glc6S
How it was run: as §1

[25] = target: Fuc(a1-3)[Gal(b1-4)]GlcNAc
How it was run: as §1

[26] = target: Fuc(a1-3)[Gal(b1-4)]GlcNAc(b1-2)Man
How it was run: as §1

[27] = target: Fuc(a1-3)[Gal(b1-4)]GlcNAc(b1-2)Man(a1-3)[Fuc(a1-3)[Gal(b1-4)]GlcNAc(b1-2)Man(a1-6)]Man(b1-4)GlcNAc(b1-4)GlcNAc
How it was run: as §1

[28] = target: Fuc(a1-3)[Gal(b1-4)]GlcNAc(b1-2)Man(a1-3)[Fuc(a1-3)[Gal(b1-4)]GlcNAc(b1-2)Man(a1-6)]Man(b1-4)GlcNAc(b1-4)[Fuc(a1-6)]GlcNAc
How it was run: as §1

[29] = target: Fuc(a1-3)[Gal(b1-4)]GlcNAc(b1-3)Gal(b1-3)[Fuc(a1-4)]GlcNAc
How it was run: as §1

[30] = target: Fuc(a1-3)[Gal(b1-4)]GlcNAc(b1-3)Gal(b1-4)[Fuc(a1-3)]GlcNAc
How it was run: as §1

[31] = target: Fuc(a1-3)[Gal(b1-4)]GlcNAc(b1-3)Gal(b1-4)[Fuc(a1-3)]GlcNAc(b1-3)Gal(b1-4)[Fuc(a1-3)]GlcNAc
How it was run: as §1

[32] = target: Fuc(a1-3)[Gal(b1-4)]GlcNAc(b1-3)GalNAc
How it was run: as §1

[33] = target: Fuc(a1-3)[Gal(b1-4)]GlcNAc(b1-6)GalNAc
How it was run: as §1

[34] = target: Fuc(a1-3)[Gal(b1-4)]GlcNAc(b1-6)[Gal(b1-3)GlcNAc(b1-3)]Gal(b1-4)Glc
How it was run: as §1

[35] = target: Fuc(a1-3)[Gal(b1-4)]GlcNAc6S
How it was run: as §1

[36] = target: Fuc(a1-3)[Gal3S(b1-4)]Glc
How it was run: as §1

[37] = target: Fuc(a1-3)[Gal3S(b1-4)]GlcNAc
How it was run: as §1

B1: PX9961Q-bfa-504-27-504 (Bacteroides fragilis) (protein)
chain: NDWLDRKPADGIPSEDAITNYNDALTARTGMYDGIQGNSNATSYYGARMFYYGDVRADDMQARTQGMRSSSCYEMLYTVDDAPNMWNIPYNVIRRANRLIEAINEKKVTDATEAQIGKIYSEALVVRALVHFDLVRIYGMPYTADNGASLGVPVIVKPLERNDLPSRNTVAEVYTQVITDLTDAINSGYLAKDQTPGYINEWAAKALLTRVYLTKGDNENALKVAEDIITNSPYKLWTNEEYVNAWYKSNGAHTNEMIFEVVNASNDDWTDRNGIAYLLNENGYADAIVTKSFMNMLSQDPKDVRIGMVLPAQYDKDLQEEYGDAKIFINKFPADKDDVGEMRLNNLPLLRLSEVYLSAAEAAAKLGGHQDKAAKYLNEIVQRANPEAKAISEADATVERIILERRKEMIGEGQRYFDALRNNETIVRYKDEGDKGYHYSLIKESQSFDRTYFRAILPIPVDETNVNPNLRAQQNPGY
[1]
  glycan array binding signal (z-score): 1.12
[2]
  glycan array binding signal (z-score): -0.718
[3]
  glycan array binding signal (z-score): -0.253
[4]
  glycan array binding signal (z-score): 0.126
[5]
  glycan array binding signal (z-score): -0.332
[6]
  glycan array binding signal (z-score): 0.439
[7]
  glycan array binding signal (z-score): -0.402
[8]
  glycan array binding signal (z-score): -0.474
[9]
  glycan array binding signal (z-score): -0.738
[10]
  glycan array binding signal (z-score): -1.4
[11]
  glycan array binding signal (z-score): -0.704
[12]
  glycan array binding signal (z-score): -0.265
[13]
  glycan array binding signal (z-score): -0.023
[14]
  glycan array binding signal (z-score): 0.309
[15]
  glycan array binding signal (z-score): 0.965
[16]
  glycan array binding signal (z-score): 0.044
[17]
  glycan array binding signal (z-score): 0.153
[18]
  glycan array binding signal (z-score): -0.308
[19]
  glycan array binding signal (z-score): 0.687
[20]
  glycan array binding signal (z-score): -0.217
[21]
  glycan array binding signal (z-score): -0.673
[22]
  glycan array binding signal (z-score): -0.233
[23]
  glycan array binding signal (z-score): -0.282
Fuc(a1-3)GlcNAc
  glycan array binding signal (z-score): -0.481
[24]
  glycan array binding signal (z-score): 0.341
[25]
  glycan array binding signal (z-score): 0.177
[26]
  glycan array binding signal (z-score): -0.257
[27]
  glycan array binding signal (z-score): 0.155
[28]
  glycan array binding signal (z-score): 0.98
[29]
  glycan array binding signal (z-score): -0.095
[30]
  glycan array binding signal (z-score): 0.859
[31]
  glycan array binding signal (z-score): -0.3
[32]
  glycan array binding signal (z-score): -0.297
[33]
  glycan array binding signal (z-score): 4.03
[34]
  glycan array binding signal (z-score): -0.595
[35]
  glycan array binding signal (z-score): -0.314
[36]
  glycan array binding signal (z-score): -0.651
[37]
  glycan array binding signal (z-score): -0.709
